From paper PMC6032435 come the findings set out here.

Chains of the proteins cited; added tags and fusions are not shown. Residues count along the entry.
UniProt P9WIP9, residues 1-109: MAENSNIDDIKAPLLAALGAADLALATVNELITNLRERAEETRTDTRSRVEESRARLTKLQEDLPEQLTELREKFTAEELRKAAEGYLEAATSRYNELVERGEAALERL

The target of this test is HBHA(1-109), devoid of its linker and heparin-binding domain regions, from pKT25_hbhA(1-109) (Mycobacterium tuberculosis H37Rv) (UniProt P9WIP9). In words: two-hybrid.

These are yes or no findings as the source states them, for the method shown. Some binding calls cover weakened binding; strength is not graded here.

In the case of “MmpL14(519-749), from pUT18C_mmpL14(519-749) (from UniProt A5U3C1 519-749) (domain or fragment)”, the binding entry is recorded as “binds”.

With “Rv0613c(314-550), from pUT18C_rv0613c(314-550) (from UniProt I6Y897 314-550) (domain or fragment)”, the binding entry is on record as “binds”.
